Assay results reported in patent US20220365069A1, “ATP-BASED CELL SORTING AND HYPERPROLIFERATIVE CANCER STEM CELLS” (LUNELLA BIOTECH, INC., priority 2019, published 2022).
At least one compound was matched to its structure with a doubt left.

Key:
ATP-low MCF7 cells = experiment: 3D-mammosphere assay, drug sensitivity of ATP-low MCF7 sub-population; assay type: cell-based, human; conditions: 25 μM and 50 μM
Text: (§1) MCF7 cells in the ATP-high subpopulation show a multi-drug resistance phenotype. The 3D-mammosphere assay was used to explore the differential sensitivity of ATP-high and ATP-low MCF7 cell sub-populations to four different classes of drugs, using as a functional readout of drug-resistance. The drug classes include Tamoxifen, doxycycline, DPI, and Palbociclib.
(§2) Flow Cytometry after Vital Staining with ATP-Red 1: Human breast cancer cell lines were first grown either as a 2D-monolayer or as 3D-spheroids. Then the cells were collected and dissociated into a single-cell suspension, prior to analysis or sorting by flow-cytometry with a SONY SH800 Cell Sorter. Briefly, ATP-high and ATP-low sub-populations of cells were isolated after vital staining with the probe ATP-Red 1. The ATP-high and ATP-low cell sub-populations were selected by gating, within the ATP-Red 1 signal. […] Data were analyzed with FlowJo 10.1 software.
(§3) 3D Anchorage Independent Growth Assay: A single cell suspension was prepared using enzymatic (lx Trypsin-EDTA, Sigma Aldrich, cat. #T3924), and manual disaggregation (25 gauge needle). […] After 5 days, 3D spheroids with a diameter greater than 50 μm were counted using a microscope, fitted with a graticule eye-piece, and the percentage of cells which formed spheroids was calculated and normalized to one (1=100% MFE; mammosphere forming efficiency). […]

ATP-high MCF7 cells = experiment: 3D-mammosphere assay, drug sensitivity of ATP-high MCF7 sub-population; assay type: cell-based, human; conditions: 25 μM and 50 μM
Text: as §1, §2, §3

[1] = tested on: CSC burden in early breast cancer patients; conditions: oral 200 mg/day for 14 days, pre-operative; cited from earlier work

SMILES: C[C@H]1c2cccc(O)c2C(=O)C2=C(O)[C@]3(O)C(=O)C(C(N)=O)=C(O)[C@@H](N(C)C)[C@@H]3[C@@H](O)[C@@H]21 [Doxycycline]
- drug sensitivity of 3D-mammosphere formation (in words) (ATP-low MCF7 cells): highly effective
- drug sensitivity of 3D-mammosphere formation (in words) (ATP-high MCF7 cells): largely resistant
- positive response rate [1]: ~90%
